For some of these results: Some peptides are written in HELM: one residue between dots, names in brackets for other building blocks, links after the first $.

Data set [1] is described as follows: general procedure: Fmoc solid-phase peptide synthesis; Fmoc-Ala-Wang resin; HOBT, HBTU, DIEA. Conditions: whole synthesis, analytical HPLC, scale of the general procedure 0.25 mmol.
A short description of data set [2]: general procedure: Fmoc solid-phase peptide synthesis; Fmoc-nL-Wang resin; HOBT, HBTU, DIEA. Conditions: whole synthesis, analytical HPLC, scale 3 mmol.
A short description of data set [3]: general procedure: Fmoc solid-phase peptide synthesis; preloaded Wang resin; HOBT, HBTU, DIEA. Conditions: for final HPLC purity: analytical HPLC.

Consider Ac-RQSRAA-OH, for which the “crude HPLC purity” value in data set [1] is “approximately 95% purity”.
As for Ac-Gly-Ser-Gly-Arg-Ser-nLeu-OH, in data set [2], the “crude HPLC purity” value is listed as “purity=90%”. Further, the “final HPLC purity” value in data set [3] (whole synthesis, scale of the general procedure 0.25 mmol) came to 97% purity. Further, in data set [3] (whole synthesis, scale 3 mmol), the isolated mass is 1.04 g and the isolated yield is 56%.
Regarding “PEPTIDE1{[ac].G.S.G.R.S.[nLeu].[Dox]}$$$$V2.0”, in data set [3] (conjugation step), the conjugation yield is recorded as 45% and the “final HPLC purity” value amounted to 95% purity.

These data come from patent publication US20040001801A1 (priority 2002, published 2004).
